For 42 sequences, binding signal results are on record in article PMC7819943, “Rice protein-binding microarrays: a tool to detect cis-acting elements near promoter regions in rice”.

The list shows a part of the results.

The target in the test is T1, OsSMF1 (Oryza sativa, UniProt Q6ZLB0 1-436).
T1 sequence: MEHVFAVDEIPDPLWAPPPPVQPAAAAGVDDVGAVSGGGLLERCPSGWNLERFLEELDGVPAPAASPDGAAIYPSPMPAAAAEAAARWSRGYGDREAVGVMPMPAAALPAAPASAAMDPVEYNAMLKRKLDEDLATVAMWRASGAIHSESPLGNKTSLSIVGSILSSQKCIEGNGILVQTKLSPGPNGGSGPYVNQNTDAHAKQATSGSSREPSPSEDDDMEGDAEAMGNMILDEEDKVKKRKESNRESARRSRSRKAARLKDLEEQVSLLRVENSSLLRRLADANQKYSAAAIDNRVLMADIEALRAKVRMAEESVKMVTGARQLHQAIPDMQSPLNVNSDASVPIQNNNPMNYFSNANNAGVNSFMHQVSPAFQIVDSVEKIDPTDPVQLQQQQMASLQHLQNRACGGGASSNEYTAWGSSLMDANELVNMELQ
Briefly: protein-binding microarray (RPBM); PBS, 2% BSA, 51.3 ng/ul salmon testes DNA, 50 uM zinc acetate, 200 nM TF, 25 C, 1 h; high values mean tight binding. The following applies: protein: recombinant; tags: N-terminal polyhistidine and DsRed monomer fusion (pET32a); chain copies: 2; label: CyDye5-dUTP incorporated in the synthesized complementary strand; 3' TTTTT single-stranded linker to array surface; dsDNA, one strand shown. An outline of the steps:
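An Axon 4000B scanner gave the binding signal as per-feature fluorescence intensity in arbitrary units. This followed washing of a custom Agilent array that had been incubated for 1 h at 25 °C with 200 nM protein in PBS, 2% BSA, salmon testes DNA and 50 µM zinc acetate. The proteins were transcription factors fused at the N-terminus to polyhistidine and DsRed, expressed in E. coli BL21-CodonPlus and purified on Ni–NTA.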
Regarding “GAATTACAAGGATGGTAAGGTTTGGTCTTTCAAAGTCTTACGGAGTCACCTAGTGCAG”, the binding signal was 40100 fluorescence intensity (a.u.).

“ATTAGGTGGCTTTACTCTTCCGCCTGCGTGGCTGCCTGCCCGGAGTCACCTAGTGCAG”: the binding signal was 4710 fluorescence intensity (a.u.).

“ACTTACCTATTTAATGACGGGGACTACTACTTGTGGATGGCGGAGTCACCTAGTGCAG”: the binding signal is 5300 fluorescence intensity (a.u.).

For the sequence “TCATTTAACAAACGTCTTAAACAGGGAAACCGCATATGCACGGAGTCACCTAGTGCAG”, the binding signal is 29500 fluorescence intensity (a.u.).

For the sequence “GTGGTACGCCGTGCGCCCGCGCCACCTCACCTCCGCCGAGCGGAGTCACCTAGTGCAG”, the binding signal is 8240 fluorescence intensity (a.u.).

For the sequence “CCTCCACCTCATCGTCCTCCTCCTCCGCTTCGCATTTCCTCGGAGTCACCTAGTGCAG”, the binding signal is 5420 fluorescence intensity (a.u.).

Regarding “TGTCACCACAGCTCACGAGAGGTGTCAGCCATTGTGGTTGCGGAGTCACCTAGTGCAG”, the binding signal is 4150 fluorescence intensity (a.u.).

With “ATGTTTGAATGCATTCTTTCATCACCAAGGCGTGGCACCTCGGAGTCACCTAGTGCAG”, the binding signal was 4270 fluorescence intensity (a.u.).

Regarding “TCTCCGTCGCCGTAAGATGGTGTCGTCCATGTGAATGAACCGGAGTCACCTAGTGCAG”, the binding signal is 3210 fluorescence intensity (a.u.).

Turning to “GGCAACGCGCAGGTGACGCCGCTGCACGTGGCGAGCGCGACGGAGTCACCTAGTGCAG”, the binding signal is 10200 fluorescence intensity (a.u.).

In the case of “GATGGAGACCCTGTGCGAACTGACAGTAATAGGGCTGGAACGGAGTCACCTAGTGCAG”, the binding signal was 39400 fluorescence intensity (a.u.).

“TCTTGACATGGTTGCATATGTCAGTGACTTCGGTTCAGCACGGAGTCACCTAGTGCAG”: the binding signal is 3210 fluorescence intensity (a.u.).

As to “GGCCGTGGCGTAGCCGGCCGCCGCCGCGGTGGACGCGTTGCGGAGTCACCTAGTGCAG”, the binding signal was 3180 fluorescence intensity (a.u.).

Consider “TGTGTTTGATGTGATGATGTCCTCATTTACTATCAGTGGTCGGAGTCACCTAGTGCAG”, for which the binding signal was 4340 fluorescence intensity (a.u.).

Regarding “TACCCGGCGCCCTACAGCGACGGACGGACGGACGGCGTCACGGAGTCACCTAGTGCAG”, the binding signal is 24600 fluorescence intensity (a.u.).

For the sequence “CAGCGGTGAACCTGAGCGAGCGGATTTCGGCGTACGTGGCCGGAGTCACCTAGTGCAG”, the binding signal is 4050 fluorescence intensity (a.u.).

Regarding “ATATGGTTAGAGCAATGACTTGGACTAGTGAGTCTTCCATCGGAGTCACCTAGTGCAG”, the binding signal was 4860 fluorescence intensity (a.u.).

Take “AACTTAATACGTAAACAATGTCAAATCGTCATCTCCACATCGGAGTCACCTAGTGCAG”: the binding signal is 3250 fluorescence intensity (a.u.).

In the case of “CTCCCATCTCCATCTCCCATCTCGCCTCAGCGAACTCCCCCGGAGTCACCTAGTGCAG”, the binding signal was 25800 fluorescence intensity (a.u.).

On to “AGTACTATATTGCGACGTGTACATGTGTTTGTTTAAGCCTCGGAGTCACCTAGTGCAG”, for which the binding signal was 5890 fluorescence intensity (a.u.).

“CACACACGCACACACACGACACGACAGCTTCGTGCTCAAGCGGAGTCACCTAGTGCAG”: the binding signal is 4150 fluorescence intensity (a.u.).

As for “GTCGAGTGAATTATAGGCGAACGTCTGACAAAGCAGTGACCGGAGTCACCTAGTGCAG”, the binding signal is 3510 fluorescence intensity (a.u.).

As to “ATGTATGGGCATATGCCTCTTGTAGCCACCACAGTCAAAGCGGAGTCACCTAGTGCAG”, the binding signal was 3320 fluorescence intensity (a.u.).

In the case of “AGGGGCCACACCGACCCTCCACGTCATCGTCCACGTCACCCGGAGTCACCTAGTGCAG”, the binding signal is 40900 fluorescence intensity (a.u.).

Regarding “CTACTGAAGCCAGCAAAGTTCAACAACATGACACAGTAGCCGGAGTCACCTAGTGCAG”, the binding signal is 3440 fluorescence intensity (a.u.).

With “CAGCCGCGGCCGCACGGCCGCACAGAGAGGTTATTCGATTCGGAGTCACCTAGTGCAG”, the binding signal is 3330 fluorescence intensity (a.u.).

As for “ATGGATAGTAACTGCATGCCGGAGACACCGTATCATTGTACGGAGTCACCTAGTGCAG”, the binding signal is 3220 fluorescence intensity (a.u.).

As to “TGCAGCCTTCTTGTCCTCCTGTTCGTCAACAGCATCAGCACGGAGTCACCTAGTGCAG”, the binding signal was 4550 fluorescence intensity (a.u.).

In the case of “GAAGATCCCCACGAGCGTGAGGTAGTAGGCAAGCACGTGGCGGAGTCACCTAGTGCAG”, the binding signal was 4220 fluorescence intensity (a.u.).

For “GCCGTCCACTGTTCCTCGCCGGTGCACTGGCTGACGTCGCCGGAGTCACCTAGTGCAG”, the binding signal was 5580 fluorescence intensity (a.u.).

For “CGTCACAAGCCGTTAATGACACATCAGCAGGCACGCTCCACGGAGTCACCTAGTGCAG”, the binding signal is 12000 fluorescence intensity (a.u.).

For the sequence “TAAGGGACCACCTATATGTTTGTCGATAAATTTTCTCCTACGGAGTCACCTAGTGCAG”, the binding signal was 3370 fluorescence intensity (a.u.).

Turning to “TTAATAGTATAGTAAGCAATTGTTGTATGAATTGGCTATTCGGAGTCACCTAGTGCAG”, the binding signal is 27200 fluorescence intensity (a.u.).

Consider “CTCGGTCAAGTTCCCGTTACAAAATGACTCAACCACATCGCGGAGTCACCTAGTGCAG”, for which the binding signal is 6260 fluorescence intensity (a.u.).

In the case of “CGCCACCGCGCTCGCCCGCTGACGCCGCCTCGCCCTGCCGCGGAGTCACCTAGTGCAG”, the binding signal was 5400 fluorescence intensity (a.u.).

Take “CCCACGAGCGTATCGTAGCTGACGCTTCGTCTTGACGCCGCGGAGTCACCTAGTGCAG”: the binding signal was 4290 fluorescence intensity (a.u.).

Consider “TTTGGGCTGCAATTCTGTTTGTCCTAGGTTGCATATGCTTCGGAGTCACCTAGTGCAG”, for which the binding signal is 17300 fluorescence intensity (a.u.).

Take “GTGTGCACCTAAGAATTTCTCCGGTGGATGATGTATGATGCGGAGTCACCTAGTGCAG”: the binding signal is 3650 fluorescence intensity (a.u.).

With “TTTCGACCACCTTCATGGTCCATCCACATCATCCTTCTCACGGAGTCACCTAGTGCAG”, the binding signal is 8240 fluorescence intensity (a.u.).

Turning to “GGTAGAGCTTCAACTTTGATCCGTTGGTGTCATAACGTGTCGGAGTCACCTAGTGCAG”, the binding signal is 3470 fluorescence intensity (a.u.).

In the case of “AAAACTCGCGGCTCCCCTGCCTTCCACGTCTGAGAGGCAACGGAGTCACCTAGTGCAG”, the binding signal is 3580 fluorescence intensity (a.u.).

Turning to “GCAAAAGAAAATCACCAACTTGCTCACGCAGTCACGCTGCCGGAGTCACCTAGTGCAG”, the binding signal is 3630 fluorescence intensity (a.u.).
